The list shows a part of the results.
What follows are targets tested with c1cn2cc(-c3ccc4cn[nH]c4c3)nc(Nc3ccc(N4CCOCC4)cc3)c2n1 [entospletinib] (assay: log2 fold change, soluble protein after heating vs DMSO (PISA); higher = thermal stabilisation; K562 cells, 10 uM, 30 min; active = over 0.2 and 3.5 SD of the protein, either way, in both replicates (recomputed)).
Method in brief: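 Values are thermal stability changes relative to control samples and are taken from duplicates. They are stated as log2 fold changes. Before quantification by TMTpro 16plex LC-MS/MS with equalised channel sums, K562 cells at 2×10^6 cells/mL were treated with 10 μM compound for 30 min, heated in aliquots for 3 min across 48°C-58°C, pooled, extracted in PBS with 0.5% NP-40 at 4°C, and centrifuged at 21,000xg for 90 min to give the soluble supernatant.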

The chains behind the UniProt entries cited, without tags or fusion partners. Where a name states a change or a piece, a line headed by the entry shows the natural chain unless it says otherwise.
UniProt P55822: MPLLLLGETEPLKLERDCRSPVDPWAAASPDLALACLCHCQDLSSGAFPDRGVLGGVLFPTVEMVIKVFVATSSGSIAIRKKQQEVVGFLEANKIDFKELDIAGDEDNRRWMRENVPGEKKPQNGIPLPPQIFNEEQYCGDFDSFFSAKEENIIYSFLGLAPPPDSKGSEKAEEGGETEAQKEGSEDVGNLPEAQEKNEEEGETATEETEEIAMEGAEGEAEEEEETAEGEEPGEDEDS
UniProt Q9Y371: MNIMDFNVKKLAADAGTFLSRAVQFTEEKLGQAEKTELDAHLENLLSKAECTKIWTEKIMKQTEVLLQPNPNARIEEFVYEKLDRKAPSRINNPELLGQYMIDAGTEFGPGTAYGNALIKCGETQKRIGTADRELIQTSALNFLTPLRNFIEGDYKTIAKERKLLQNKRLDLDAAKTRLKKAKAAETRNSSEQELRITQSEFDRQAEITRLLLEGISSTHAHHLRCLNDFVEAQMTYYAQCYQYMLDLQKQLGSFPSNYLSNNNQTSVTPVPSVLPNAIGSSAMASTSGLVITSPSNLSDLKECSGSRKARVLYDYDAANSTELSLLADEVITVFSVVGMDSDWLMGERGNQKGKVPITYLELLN
UniProt Q13435: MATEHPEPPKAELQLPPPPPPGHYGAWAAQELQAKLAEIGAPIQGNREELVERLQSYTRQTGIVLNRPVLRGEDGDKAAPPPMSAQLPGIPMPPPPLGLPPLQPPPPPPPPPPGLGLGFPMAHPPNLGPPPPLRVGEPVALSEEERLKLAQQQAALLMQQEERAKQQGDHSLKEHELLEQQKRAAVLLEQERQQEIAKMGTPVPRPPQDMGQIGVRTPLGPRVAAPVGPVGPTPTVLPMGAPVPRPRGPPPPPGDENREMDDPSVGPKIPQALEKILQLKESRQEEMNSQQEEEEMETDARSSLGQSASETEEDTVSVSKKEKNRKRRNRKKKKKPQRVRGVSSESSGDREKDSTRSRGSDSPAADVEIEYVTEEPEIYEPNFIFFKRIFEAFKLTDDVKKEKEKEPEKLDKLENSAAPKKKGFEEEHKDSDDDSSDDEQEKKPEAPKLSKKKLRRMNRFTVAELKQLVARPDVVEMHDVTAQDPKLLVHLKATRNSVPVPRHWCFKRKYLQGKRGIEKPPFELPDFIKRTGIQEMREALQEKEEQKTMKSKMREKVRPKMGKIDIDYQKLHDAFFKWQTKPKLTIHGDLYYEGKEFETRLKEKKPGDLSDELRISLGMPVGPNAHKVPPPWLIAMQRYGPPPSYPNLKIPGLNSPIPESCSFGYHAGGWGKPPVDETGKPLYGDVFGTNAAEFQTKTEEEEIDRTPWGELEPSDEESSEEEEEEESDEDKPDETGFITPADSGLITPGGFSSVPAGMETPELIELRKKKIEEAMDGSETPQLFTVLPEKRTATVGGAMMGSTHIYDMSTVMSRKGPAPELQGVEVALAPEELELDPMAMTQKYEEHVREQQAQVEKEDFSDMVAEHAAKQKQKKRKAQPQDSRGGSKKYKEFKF
UniProt Q9Y3B4: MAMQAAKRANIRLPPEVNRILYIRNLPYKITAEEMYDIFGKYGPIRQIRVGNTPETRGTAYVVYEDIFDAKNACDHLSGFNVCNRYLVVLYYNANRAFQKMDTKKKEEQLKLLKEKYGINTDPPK
UniProt Q9UJC5: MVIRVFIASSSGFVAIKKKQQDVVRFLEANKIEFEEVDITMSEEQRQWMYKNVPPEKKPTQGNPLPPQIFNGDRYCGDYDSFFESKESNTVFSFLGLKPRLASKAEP
UniProt O75635: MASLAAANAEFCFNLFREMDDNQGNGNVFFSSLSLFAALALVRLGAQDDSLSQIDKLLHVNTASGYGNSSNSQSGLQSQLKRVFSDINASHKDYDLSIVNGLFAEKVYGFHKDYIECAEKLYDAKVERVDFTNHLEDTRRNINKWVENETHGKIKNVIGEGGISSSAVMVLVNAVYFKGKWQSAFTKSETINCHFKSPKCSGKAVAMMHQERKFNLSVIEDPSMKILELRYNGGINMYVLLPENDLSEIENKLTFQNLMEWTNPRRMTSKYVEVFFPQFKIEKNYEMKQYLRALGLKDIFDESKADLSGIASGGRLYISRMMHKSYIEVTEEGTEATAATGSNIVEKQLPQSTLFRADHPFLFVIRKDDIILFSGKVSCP
UniProt Q9Y6D0, whole entry, looked up: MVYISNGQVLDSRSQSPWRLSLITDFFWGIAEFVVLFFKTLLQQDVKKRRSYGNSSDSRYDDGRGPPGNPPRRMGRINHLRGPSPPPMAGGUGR
UniProt Q8TBC3: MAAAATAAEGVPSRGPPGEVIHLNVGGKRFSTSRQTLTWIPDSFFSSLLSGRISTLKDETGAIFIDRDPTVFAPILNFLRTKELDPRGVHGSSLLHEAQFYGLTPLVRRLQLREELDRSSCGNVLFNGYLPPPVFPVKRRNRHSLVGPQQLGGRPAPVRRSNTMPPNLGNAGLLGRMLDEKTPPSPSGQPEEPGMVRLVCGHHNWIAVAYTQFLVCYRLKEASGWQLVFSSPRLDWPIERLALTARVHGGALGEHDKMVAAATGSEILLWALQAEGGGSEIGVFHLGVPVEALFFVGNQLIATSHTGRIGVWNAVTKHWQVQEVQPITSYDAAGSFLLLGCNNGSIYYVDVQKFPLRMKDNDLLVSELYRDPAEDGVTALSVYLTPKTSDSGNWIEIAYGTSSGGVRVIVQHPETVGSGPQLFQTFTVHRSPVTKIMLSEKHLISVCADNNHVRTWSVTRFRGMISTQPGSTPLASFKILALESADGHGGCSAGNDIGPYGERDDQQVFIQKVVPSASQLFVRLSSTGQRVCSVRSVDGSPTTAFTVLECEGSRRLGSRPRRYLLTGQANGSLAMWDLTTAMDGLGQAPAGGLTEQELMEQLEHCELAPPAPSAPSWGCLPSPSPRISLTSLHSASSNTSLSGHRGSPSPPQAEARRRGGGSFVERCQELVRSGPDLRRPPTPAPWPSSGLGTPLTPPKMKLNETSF
UniProt Q99720, whole entry, looked up: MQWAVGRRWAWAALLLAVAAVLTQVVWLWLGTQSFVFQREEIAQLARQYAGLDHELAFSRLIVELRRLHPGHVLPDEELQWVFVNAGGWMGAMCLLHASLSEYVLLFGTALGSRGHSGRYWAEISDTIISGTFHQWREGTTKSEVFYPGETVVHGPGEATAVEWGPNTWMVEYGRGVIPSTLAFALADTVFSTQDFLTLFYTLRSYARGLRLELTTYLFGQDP
UniProt Q99574: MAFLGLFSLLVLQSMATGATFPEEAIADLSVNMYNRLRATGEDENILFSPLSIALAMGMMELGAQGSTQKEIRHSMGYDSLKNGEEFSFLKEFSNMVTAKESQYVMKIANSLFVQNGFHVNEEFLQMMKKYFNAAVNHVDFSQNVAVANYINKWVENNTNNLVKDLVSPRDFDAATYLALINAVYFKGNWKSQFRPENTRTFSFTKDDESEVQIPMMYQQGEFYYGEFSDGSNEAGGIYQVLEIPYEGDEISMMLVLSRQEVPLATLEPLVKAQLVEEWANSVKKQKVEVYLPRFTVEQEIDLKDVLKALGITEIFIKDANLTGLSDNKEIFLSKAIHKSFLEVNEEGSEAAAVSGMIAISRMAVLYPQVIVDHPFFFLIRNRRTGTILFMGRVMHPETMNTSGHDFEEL
UniProt Q8WV19: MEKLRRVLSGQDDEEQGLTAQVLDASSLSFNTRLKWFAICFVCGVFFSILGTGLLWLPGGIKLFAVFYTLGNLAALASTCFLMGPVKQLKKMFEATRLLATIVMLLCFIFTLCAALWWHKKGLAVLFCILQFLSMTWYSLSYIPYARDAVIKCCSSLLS
UniProt Q15428: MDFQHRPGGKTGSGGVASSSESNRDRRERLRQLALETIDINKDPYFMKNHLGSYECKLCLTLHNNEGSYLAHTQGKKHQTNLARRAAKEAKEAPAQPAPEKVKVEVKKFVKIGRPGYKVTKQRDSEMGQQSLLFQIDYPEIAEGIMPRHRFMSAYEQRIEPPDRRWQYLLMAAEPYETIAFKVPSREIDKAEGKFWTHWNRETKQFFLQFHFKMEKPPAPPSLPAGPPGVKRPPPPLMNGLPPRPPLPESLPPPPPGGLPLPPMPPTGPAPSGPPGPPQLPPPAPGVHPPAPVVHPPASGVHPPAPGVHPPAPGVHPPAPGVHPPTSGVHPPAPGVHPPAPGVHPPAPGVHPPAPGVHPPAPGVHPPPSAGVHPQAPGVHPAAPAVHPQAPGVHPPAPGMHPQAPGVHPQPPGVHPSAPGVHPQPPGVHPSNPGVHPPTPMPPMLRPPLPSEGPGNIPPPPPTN
UniProt P50454: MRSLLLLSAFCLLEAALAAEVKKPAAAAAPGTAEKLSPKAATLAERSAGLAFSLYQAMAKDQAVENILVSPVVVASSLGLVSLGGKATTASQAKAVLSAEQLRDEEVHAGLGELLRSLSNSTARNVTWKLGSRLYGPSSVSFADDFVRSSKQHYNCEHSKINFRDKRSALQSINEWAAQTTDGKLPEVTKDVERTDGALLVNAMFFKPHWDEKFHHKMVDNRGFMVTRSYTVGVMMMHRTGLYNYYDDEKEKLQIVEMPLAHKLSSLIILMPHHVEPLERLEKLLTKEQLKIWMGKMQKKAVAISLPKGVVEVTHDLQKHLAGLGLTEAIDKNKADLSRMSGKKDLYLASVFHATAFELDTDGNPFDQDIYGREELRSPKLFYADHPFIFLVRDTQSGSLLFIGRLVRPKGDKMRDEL
UniProt Q9H299: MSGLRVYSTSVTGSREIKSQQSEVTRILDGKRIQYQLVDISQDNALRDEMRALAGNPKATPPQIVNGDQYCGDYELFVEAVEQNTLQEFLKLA
UniProt P60059: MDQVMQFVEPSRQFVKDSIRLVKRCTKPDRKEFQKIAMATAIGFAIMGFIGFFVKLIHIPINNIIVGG
UniProt Q8IW75: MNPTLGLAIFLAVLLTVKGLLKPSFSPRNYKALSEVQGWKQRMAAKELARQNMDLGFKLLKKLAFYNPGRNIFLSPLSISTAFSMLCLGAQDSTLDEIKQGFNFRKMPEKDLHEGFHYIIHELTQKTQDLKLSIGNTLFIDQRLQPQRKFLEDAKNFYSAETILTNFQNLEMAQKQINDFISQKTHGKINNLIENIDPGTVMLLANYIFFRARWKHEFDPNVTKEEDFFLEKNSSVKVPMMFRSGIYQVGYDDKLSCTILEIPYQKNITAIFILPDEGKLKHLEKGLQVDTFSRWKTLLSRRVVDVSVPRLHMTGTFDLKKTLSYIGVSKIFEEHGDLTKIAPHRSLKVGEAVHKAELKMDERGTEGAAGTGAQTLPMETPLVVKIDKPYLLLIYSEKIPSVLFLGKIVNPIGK
UniProt Q9UHD8: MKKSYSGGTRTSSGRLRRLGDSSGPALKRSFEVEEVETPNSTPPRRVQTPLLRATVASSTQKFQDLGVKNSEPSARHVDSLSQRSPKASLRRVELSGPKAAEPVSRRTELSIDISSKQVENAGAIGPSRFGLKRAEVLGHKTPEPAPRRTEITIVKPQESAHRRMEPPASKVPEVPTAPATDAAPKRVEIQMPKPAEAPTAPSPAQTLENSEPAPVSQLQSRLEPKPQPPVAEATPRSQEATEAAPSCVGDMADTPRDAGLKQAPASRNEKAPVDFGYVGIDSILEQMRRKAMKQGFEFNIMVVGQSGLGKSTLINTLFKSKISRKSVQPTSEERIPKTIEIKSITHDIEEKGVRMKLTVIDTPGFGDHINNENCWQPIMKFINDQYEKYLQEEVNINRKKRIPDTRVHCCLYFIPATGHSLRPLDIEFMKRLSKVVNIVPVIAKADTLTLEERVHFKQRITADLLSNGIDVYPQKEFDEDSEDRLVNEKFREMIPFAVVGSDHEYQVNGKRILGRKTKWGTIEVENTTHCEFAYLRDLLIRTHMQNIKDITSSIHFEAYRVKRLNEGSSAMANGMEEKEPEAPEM
UniProt Q6P4A7: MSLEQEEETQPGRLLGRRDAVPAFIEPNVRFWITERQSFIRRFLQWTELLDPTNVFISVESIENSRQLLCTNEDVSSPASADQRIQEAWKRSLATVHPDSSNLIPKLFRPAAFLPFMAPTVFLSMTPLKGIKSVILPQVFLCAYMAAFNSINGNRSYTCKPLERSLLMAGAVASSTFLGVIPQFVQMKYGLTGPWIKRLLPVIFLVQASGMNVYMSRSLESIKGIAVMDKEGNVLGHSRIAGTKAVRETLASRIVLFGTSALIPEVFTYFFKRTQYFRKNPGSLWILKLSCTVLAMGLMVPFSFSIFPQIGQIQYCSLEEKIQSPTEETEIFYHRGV
UniProt P08697: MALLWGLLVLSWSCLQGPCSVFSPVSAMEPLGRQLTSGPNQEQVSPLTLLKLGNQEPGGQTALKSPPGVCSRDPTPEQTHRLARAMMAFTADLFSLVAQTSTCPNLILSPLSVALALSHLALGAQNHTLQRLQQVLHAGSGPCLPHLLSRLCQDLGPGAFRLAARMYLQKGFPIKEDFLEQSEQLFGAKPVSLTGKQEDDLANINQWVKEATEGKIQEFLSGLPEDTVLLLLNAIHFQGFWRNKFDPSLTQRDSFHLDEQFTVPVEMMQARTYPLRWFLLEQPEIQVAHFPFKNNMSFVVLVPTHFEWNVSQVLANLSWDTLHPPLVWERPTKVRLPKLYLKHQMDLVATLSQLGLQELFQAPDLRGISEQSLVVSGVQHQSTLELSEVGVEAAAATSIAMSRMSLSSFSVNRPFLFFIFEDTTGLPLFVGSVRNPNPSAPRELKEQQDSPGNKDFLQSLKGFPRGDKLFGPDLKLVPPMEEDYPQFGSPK

log2 fold change, inactive:
SH3BGR (UniProt P55822) -0.06
SH3GLB1 isoform 2 (UniProt Q9Y371) 0.035
SERPINB6, A0A087X1N8 -0.031
SF3B2 (UniProt Q13435) -0.023
SERBP1 (UniProt Q8NC51) 0.063
SF3B6 (UniProt Q9Y3B4) -0.047
SH3GL3 isoform 3 (UniProt Q99963) -0.287
SH3BGRL2 (UniProt Q9UJC5) 0.038
SERPINB7 (UniProt O75635) -0.052
SIRT3 (UniProt Q9NTG7) 0.084
SEPHS2 (UniProt Q99611) -0.017
SELENOK (UniProt Q9Y6D0) -0.039
SEPSECS (UniProt Q9HD40) -0.032
SGTB (UniProt Q96EQ0) 0.027
SHKBP1 (UniProt Q8TBC3) -0.034
SIGMAR1 (UniProt Q99720) -0.067
SERPINI1 (UniProt Q99574) -0.196
SF3B1 (UniProt O75533) -0.007
SFXN1 (UniProt Q9H9B4) -0.027
SFT2D1 (UniProt Q8WV19) 0.007
SF3A2 (UniProt Q15428) -0.078
SEPTIN8 (UniProt Q92599) -0.026
SERPINH1 (UniProt P50454) 0.003
SH3BGRL3 (UniProt Q9H299) -0.004
SIGIRR (UniProt H0YDR5) -0.071
SEC61G (UniProt P60059) 0.064
SFSWAP isoform 2 (UniProt Q12872) -0.011
SF3A3 (UniProt Q12874) 0.054
SERPINA12 (UniProt Q8IW75) 0.009
SEPTIN9 (UniProt Q9UHD8) -0.042
SFXN2 (UniProt Q96NB2) 0.038
SHMT1 (UniProt P34896) -0.052
SFXN4 (UniProt Q6P4A7) 0.005
SIPA1 (UniProt Q96FS4) 0.033
SEPTIN7 (UniProt Q16181) -0.045
SERPINF2 (UniProt P08697) 0.173

2 entries drawn at random from the list so far, as already listed:
log2 fold change, inactive:
SF3B2 (UniProt Q13435) -0.023
SF3B6 (UniProt Q9Y3B4) -0.047
